Experimental data as given in PMC7273965.
These are yes or no findings as the source states them, for the method shown. Some binding calls cover weakened binding; strength is not graded here.

Amino acid sequences for entries named in this document (tags omitted). Residues count along the entry.
UniProt P20029, residues 20-655: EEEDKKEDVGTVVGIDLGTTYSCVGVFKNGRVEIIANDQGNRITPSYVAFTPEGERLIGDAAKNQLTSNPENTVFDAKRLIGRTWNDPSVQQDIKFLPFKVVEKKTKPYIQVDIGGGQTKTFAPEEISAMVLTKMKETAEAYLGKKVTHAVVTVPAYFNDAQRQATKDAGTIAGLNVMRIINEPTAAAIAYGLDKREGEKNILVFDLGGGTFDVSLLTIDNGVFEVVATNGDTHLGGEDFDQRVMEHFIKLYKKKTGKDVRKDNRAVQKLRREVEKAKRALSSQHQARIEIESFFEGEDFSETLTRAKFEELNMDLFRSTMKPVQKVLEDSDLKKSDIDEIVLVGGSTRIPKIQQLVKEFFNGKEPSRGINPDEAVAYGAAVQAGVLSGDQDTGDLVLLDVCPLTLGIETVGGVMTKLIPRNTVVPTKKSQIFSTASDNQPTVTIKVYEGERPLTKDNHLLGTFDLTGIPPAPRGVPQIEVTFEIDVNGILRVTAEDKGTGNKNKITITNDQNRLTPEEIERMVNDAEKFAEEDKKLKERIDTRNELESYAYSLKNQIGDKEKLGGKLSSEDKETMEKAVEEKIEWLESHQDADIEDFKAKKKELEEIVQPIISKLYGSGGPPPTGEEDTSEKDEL
UniProt P11021, residues 19-654: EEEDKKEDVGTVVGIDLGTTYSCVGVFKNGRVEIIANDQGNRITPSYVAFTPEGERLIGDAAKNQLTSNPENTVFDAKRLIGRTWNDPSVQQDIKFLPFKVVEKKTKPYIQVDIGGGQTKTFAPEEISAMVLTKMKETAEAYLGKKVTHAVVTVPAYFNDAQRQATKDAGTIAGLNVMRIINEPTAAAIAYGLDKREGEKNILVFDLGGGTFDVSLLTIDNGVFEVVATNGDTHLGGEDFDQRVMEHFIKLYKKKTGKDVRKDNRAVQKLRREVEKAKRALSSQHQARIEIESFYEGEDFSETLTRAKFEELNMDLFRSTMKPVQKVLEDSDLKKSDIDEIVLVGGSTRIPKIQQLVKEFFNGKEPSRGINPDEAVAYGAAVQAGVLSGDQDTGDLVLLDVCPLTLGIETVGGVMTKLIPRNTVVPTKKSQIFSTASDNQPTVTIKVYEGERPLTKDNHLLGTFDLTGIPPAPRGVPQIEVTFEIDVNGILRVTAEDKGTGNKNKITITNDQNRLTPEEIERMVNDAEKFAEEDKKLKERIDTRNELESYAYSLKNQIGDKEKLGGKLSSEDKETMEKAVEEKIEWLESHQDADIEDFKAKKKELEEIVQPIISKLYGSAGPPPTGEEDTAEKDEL

Experiments:
[1] = molecular target: recombinant neuroleukin (NLK), His-tagged (UniProt P06744); assay: co-IP; 20 pmol recombinant NLK and 10 pmol recombinant GRP78 co-incubated 1 h at RT, precipitated with anti-His-tag antibody (or normal mouse IgG) cross-linked to Dynabeads Protein G, 2 h at RT; Western blot for GRP78 and NLK; both purified
[2] = molecular target: 78-kDa glucose-regulated protein (GRP78) of cultured mouse cortical neurons (plasma membrane / cell surface) (mouse (endogenous in cultured cortical neurons of ddY mice)) (UniProt P20029); assay: drug affinity responsive target stability (DARTS); plasma membrane lysate of cultured neurons (5 µg protein) incubated 30 min at RT with 10 µg/ml recombinant NLK or vehicle, then thermolysin 30 min at 37°C (50 mM Tris-HCl pH 8.0, 50 mM NaCl, 10 mM CaCl2); GRP78 detected by Western blot; only the binder purified

binding [1]	binding [2]	Substance
binds		recombinant 78-kDa glucose-regulated protein (GRP78) (from UniProt P11021 19-654)
	binds	recombinant neuroleukin (NLK), His-tagged (from UniProt P06744 1-558) (ligand)
